Some results were stated once for a whole list of compounds, not compound by compound. For some assays here: For at least one compound, name, drawing or mass did not settle the structure.
biological target: T1, mouse DGAT1 (Mus musculus, UniProt Q9Z2A7); test: DGAT1 inhibitory effect test (microsome fraction, [14C]-oleoyl-CoA, triglyceride radioactivity by TLC); format: biochemical; conditions: concentration of the test compound 0.1 μg/ml; mouse DGAT1 microsomes, 23° C., 30 minutes
T1 construct: made in house; host or cells: insect cells (High Five, Sf9, Sf21, etc.), baculovirus expression system (Invitrogen)
T1 sequence (Q9Z2A7 1-498): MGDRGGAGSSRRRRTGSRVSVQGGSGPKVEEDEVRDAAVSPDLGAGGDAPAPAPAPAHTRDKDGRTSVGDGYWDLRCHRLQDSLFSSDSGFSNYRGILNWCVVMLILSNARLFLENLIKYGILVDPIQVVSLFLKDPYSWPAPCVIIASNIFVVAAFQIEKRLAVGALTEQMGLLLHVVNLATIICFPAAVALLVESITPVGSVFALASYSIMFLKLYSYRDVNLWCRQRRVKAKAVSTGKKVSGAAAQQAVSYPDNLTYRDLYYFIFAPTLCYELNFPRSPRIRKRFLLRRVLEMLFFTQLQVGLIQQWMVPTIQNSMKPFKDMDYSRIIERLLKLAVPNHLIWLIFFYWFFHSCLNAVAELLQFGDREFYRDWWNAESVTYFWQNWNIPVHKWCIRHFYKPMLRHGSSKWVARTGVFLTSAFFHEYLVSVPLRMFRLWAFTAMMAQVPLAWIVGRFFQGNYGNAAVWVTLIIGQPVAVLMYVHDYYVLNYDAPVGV
Experimental: The cDNA which encodes mouse DGAT1 was cloned from a mouse cDNA library by polymerase chain reaction (hereinafter referred to as “PCR”) and introduced into an insect cell virus vector (baculovirus expression system, Invitrogen). After insect cells (High Five, Sf9, Sf21, etc., Invitrogen) were infected with the virus, the cells were collected in buffer A [0.1M sucrose, 50 mM KCl, 40 mM potassium phosphate (pH 7.4), 30 mM EDTA, 1% Protease inhibitor cocktail (SIGMA, P-8340)] and crushed with a Polytron homogenizer. The supernatant obtained by subjecting the homogenate to low speed centrifugal processing (10,000 ×g, 30 minutes) was further subjected to higher-speed centrifugal processing (100,000 ×g, 60 minutes) and the precipitate was resuspended in buffer A as the microsome fraction and used as DGAT1 enzyme. The DGAT1 enzyme was divided into small volumes and stored at −80° C.
(2) DGAT1 Inhibitory Effect Test
The reaction liquid of the following composition [175 mM Tris-HCl (pH 8.0), 8 mM MgCl2, 1 mg/ml BSA, 0.5 mM 1,2-dioleoyl-sn-glycerol (EtOH solution of 10-fold concentration, 10% added), 30 μM[14C]-oleoyl-CoA (about 50 mCi/mmol), 0.5% triton X-100, DGAT1 enzyme (10 μg) obtained in Test Example 1(1), test compound or vehicle (DMSO/MeOH, 7:3 solution, 5% added), total volume 50 μl] was incubated at room temperature (23° C.) for 30 minutes. A reaction terminating solution (70 μl) consisting of isopropanol/1-heptane/water (80:20:2, v/v/v) was added to the reaction solution and stirred, and subsequently stirred with water (30 μl) and 1-heptane (100 μl). The 1-heptane layer (50 μl) was spotted onto a TLC plate and developed with a developing solvent consisting of 1-hexane/diethyl ether/acetic acid (85:15:1, v/v/v). Radioactivity of triglyceride fraction was quantified by BAS2000 bio image analyzer (Fuji Film) and the inhibitory effect of the test compounds was calculated by the following formula through comparison with control. Here, radioactivity at no reaction (0 minutes incubation) was assumed as background. Inhibitory ratio=100−[(Radioactivity when test compound was added)−(Background)]/[(Radioactivity by control)−(Background)]×100

| SMILES | Inhibitory ratio [%] |
| --- | --- |
| COc1ccc(F)cc1NC(=O)Nc1ccc(N2CCN(C(=O)Nc3c(F)cccc3C(F)(F)F)CC2)nc1 [Example 150] | ≥ 50 |
| COc1ccc(C)cc1NC(=O)Nc1ccc2c(c1)CCN(C(=O)Nc1c(C)cccc1C)C2 [Example 203, 6-[3-(2-methoxy-5-methyl-phenyl)-ureido]-3,4-dihydrido-1H-isoquinoline-2-carboxylic acid (2,6-dimethyl-phenyl)-amide] | ≥ 50 |
| Cc1cccnc1NC(=O)N1CCN(c2ccc(NC(=O)Nc3ccccc3OC(F)F)cc2)CC1 [Example 314, 4-{4-[3-(2-difluoromethoxy-phenyl)-ureido]-phenyl}-piperazine-1-carboxylic acid(3-methyl-pyridin-2-yl)-amide] | ≥ 50 |
| Cc1cccnc1NC(=O)N1CCN(c2ccc(NC(=O)Nc3ccccc3OC(F)(F)F)cc2)CC1 [Example 315, 4-{4-[3-(2-trifluoromethoxy-phenyl)-ureido]-phenyl}-piperazine-1-carboxylic acid(3-methyl-pyridin-2-yl)-amide] | ≥ 50 |
| Cc1cccnc1NC(=O)N1CCN(c2ccc(NC(=O)Nc3cccc4c3OCCO4)cc2)CC1 [Example 316, 4-{4-[3-(2,3-dihydro-1,4-benzodioxin-5-yl)-ureido]-phenyl}-piperazine-1-carboxylic acid(3-methyl-pyridin-2-yl)-amide] | ≥ 50 |
| CCOc1ccc(F)cc1NC(=O)Nc1ccc(N2CCN(C(=O)Nc3ncccc3C)CC2)cc1 [Example 317, 4-{4-[3-(2-ethoxy-5-fluoro-phenyl)-ureido]-phenyl}-piperazine-1-carboxylic acid(3-methyl-pyridin-2-yl)-amide] | ≥ 50 |
| CCOc1ccc(Cl)cc1NC(=O)Nc1ccc(N2CCN(C(=O)Nc3ncccc3C)CC2)cc1 [Example 318, 4-{4-[3-(5-chloro-2-ethoxy-phenyl)-ureido]-phenyl}-piperazine-1-carboxylic acid(3-methyl-pyridin-2-yl)-amide] | ≥ 50 |

system: male C57BL/6N mouse; test: Neutral fat absorption inhibitory effect (triglyceride concentration in small intestine lymph fluid after oral fat emulsion); format: in vivo; conditions: compound 10 or 30 mg/kg orally with 20% neutral fat emulsion, one hour after administration

| SMILES | neutral fat absorption inhibitory effect (decrease in triglyceride concentration in lymph fluid vs control group) [%] |
| --- | --- |
| CCOc1ccc(Cl)cc1NC(=O)Nc1ccc(N2CCN(C(=O)Nc3ncccc3C)CC2)nc1 [Example 299, 4-{5-[3-(5-chloro-2-ethoxy-phenyl)-ureido]-pyridin-2-yl}-piperazine-1-carboxylic acid (3-methyl-pyridin-2-yl)-amide] | ≥ 60 |
| CCOc1ccc(F)cc1NC(=O)Nc1ccc(N2CCN(C(=O)Nc3ncccc3C)CC2)nc1 [Example 300, 4-{5-[3-(2-ethoxy-5-fluoro-phenyl)-ureido]-pyridin-2-yl}-piperazine-1-carboxylic acid (3-methyl-pyridin-2-yl)-amide] | ≥ 60 |
| COc1ccc(C)cc1NC(=O)Nc1ccc(N2CCN(C(=O)Nc3ncccc3C)CC2)nc1 [Example 301, 4-{5-[3-(2-methoxy-5-methyl-phenyl)-ureido]-pyridin-2-yl}-piperazine-1-carboxylic acid (3-methyl-pyridin-2-yl)-amide] | ≥ 60 |
| Cc1cccnc1NC(=O)N1CCN(c2ccc(NC(=O)Nc3ccccc3F)cn2)CC1 [Example 302, 4-{5-[3-(2-fluoro-phenyl)-ureido]-pyridin-2-yl}-piperazine-1-carboxylic acid (3-methyl-pyridin-2-yl)-amide] | ≥ 60 |
| CCOc1ccccc1NC(=O)Nc1ccc(N2CCN(C(=O)Nc3ncccc3C)CC2)cc1 [Example 304, 4-{4-[3-(2-ethoxy-phenyl)-ureido]-phenyl}-piperazine-1-carboxylic acid (3-methyl-pyridin-2-yl)-amide] | ≥ 60 |
| CCOc1cccc(NC(=O)Nc2ccc(N3CCN(C(=O)Nc4ncccc4C)CC3)cc2)c1 [Example 305, 4-{4-[3-(3-ethoxy-phenyl)-ureido]-phenyl}-piperazine-1-carboxylic acid (3-methyl-pyridin-2-yl)-amide] | ≥ 60 |
| COc1cc(NC(=O)Nc2ccc(N3CCN(C(=O)Nc4ncccc4C)CC3)cc2)cc(OC)c1 [Example 306, 4-{4-[3-(3,5-dimethoxy-phenyl)-ureido]-phenyl}-piperazine-1-carboxylic acid (3-methyl-pyridin-2-yl)-amide] | ≥ 60 |
| COc1ccc(Cl)cc1NC(=O)Nc1ccc(N2CCN(C(=O)Nc3ncccc3C)CC2)nc1 [Example 308, 4-{5-[3-(5-chloro-2-methoxy-phenyl)-ureido]-pyridin-2-yl}-piperazine-1-carboxylic acid (3-methyl-pyridin-2-yl)-amide] | ≥ 60 |
| COc1ccc(Cl)cc1NC(=O)Nc1ccc(N2CCN(C(=O)Nc3ncccc3C)CC2)cc1 [Example 310, 4-{4-[3-(5-chloro-2-methoxy-phenyl)-ureido]-phenyl}-piperazine-1-carboxylic acid (3-methyl-pyridin-2-yl)-amide] | ≥ 60 |
| COc1ccc(C)cc1NC(=O)Nc1ccc(C2=CCN(C(=O)Nc3ncccc3C)CC2)cc1 [Example 324, 4-{4-[3-(2-methoxy-5-methyl-phenyl)-ureido]-phenyl}-3,6-dihydro-2H-pyridine-1-carboxylic acid (3-methyl-pyridin-2-yl)-amide] | ≥ 60 |
| O=C(Nc1ccc(N2CCN(C(=O)C(O)c3ccccc3Cl)CC2)nc1)Nc1ccccc1F (centres unmarked) [Example 377, 1-(6-{4-[2-(2-chloro-phenyl)-2-hydroxy-acetyl]-piperazin-1-yl}-pyridin-3-yl)-3-(2-fluoro-phenyl)-urea] | ≥ 60 |
| O=C(Nc1ccc(N2CCN(C(=O)C(O)c3ccc(O)cc3Cl)CC2)nc1)Nc1ccccc1F (centres unmarked) [Example 379, 1-(6-{4-[2-(2-chloro-4-hydroxy-phenyl)-2-hydroxy-acetyl]-piperazin-1-yl}-pyridin-3-yl)-3-(2-fluoro-phenyl)-urea] | ≥ 60 |
| O=C(Nc1ccc(N2CCN(C(=O)Nc3ccc(C(=O)O)cc3Cl)CC2)cc1)Nc1ccccc1F [Example 388, 3-chloro-4-[(4-{4-[3-(2-fluoro-phenyl)-ureido]-phenyl}-piperazine-1-carbonyl)-amino]-benzoic acid] | ≥ 60 |
| COc1ccc(C)cc1NC(=O)Nc1ccc(N2CCN(C(=O)Oc3ccc(CC(=O)O)cc3Cl)CC2)cc1 [Example 394, 4-{4-[3-(2-methoxy-5-methyl-phenyl)-ureido]-phenyl}-piperazine-1-carboxylic acid 4-carboxymethyl-2-chloro-phenyl ester] | ≥ 60 |
| COc1ccc(C)cc1NC(=O)Nc1ccc2c(c1)CCN(C(=O)Oc1ccc(CCO)cc1Cl)C2 [Example 396, 6-[3-(2-methoxy-5-methyl-phenyl)-ureido]-3,4-dihydro-1H-isoquinoline-2-carboxylic acid 2-chloro-4-(2-hydroxy-ethyl)-phenyl ester] | ≥ 60 |
| COc1ccc(C)cc1NC(=O)Nc1ccc2c(c1)CCN(C(=O)Oc1ccc(C(=O)O)cc1Cl)C2 [Example 397, 6-[3-(2-methoxy-5-methyl-phenyl)-ureido]-3,4-dihydro-1H-isoquinoline-2-carboxylic acid 4-carboxy-2-chloro-phenyl ester] | ≥ 60 |

— US20070249620A1, “Urea Derivative” (priority 2004, published 2007)
